For some of these results: For expression read-outs the peptide stands for its source gene, whose mRNA was measured; the gene is not named for every peptide.
Key:
[1] = test system: source genes (mRNA); test: Expression profiling of source genes by in-house RNASeq of tumor and normal tissues (Table 18, FIG. 2); design: species or system human; key: very highly over-expressed in tumors compared to a panel of normal tissues (+++); highly over-expressed in tumors compared to a panel of normal tissues (++); over-expressed in tumors compared to a panel of normal tissues (+); conditions: source gene of peptide; for Expression score OSCAR: esophageal cancer incl. gastric-esophageal junction (N = 11) vs panel of normal tissues; for Expression score GB: glioblastoma (N = 24) vs panel of normal tissues; for Expression score NSCLC: non-small cell lung cancer (N = 11) vs panel of normal tissues; for Expression score OC: ovarian cancer (N = 12) vs panel of normal tissues; for Expression score UBC: urinary bladder cancer (N = 10) vs panel of normal tissues; for Expression score UEC: uterine cancer (N = 10) vs panel of normal tissues
[2] = test system: HLA-A*02; test: Identification and relative LC-MS quantitation of HLA-A*02-presented tumor-associated peptides on tissue samples (presentation profiles, Tables 13A, 13B, 15, FIG. 1); design: species or system human; key to Presentation score NHL / Presentation score CLL / Presentation score BRCA / Presentation score AML / Presentation score GB / Presentation score NSCLC / Presentation score GBC_CCC / Presentation score UEC / Presentation score MEL / Presentation score OSCAR / Presentation score GC / Presentation score UBC / Presentation score OC / Presentation score RCC / Presentation score CRC / Presentation score PCA / Presentation score HCC / Presentation score PC / Presentation score SCLC: specifically presented on tumors (++++); very highly over-presented on tumors compared to a panel of normal tissues (+++); highly over-presented on tumors compared to a panel of normal tissues (++); over-presented on tumors compared to a panel of normal tissues (+); conditions: for Presentation score OSCAR: esophageal cancer, including cancer of the gastric-esophageal junction (N = 17) vs panel of normal tissues (N = 262); for Presentation score GC: gastric cancer (N = 29) vs panel of normal tissues (N = 262); for Presentation score NSCLC: non-small cell lung cancer (N = 90) vs panel of normal tissues (N = 262); for Peptide Presentation on cancer entities: HLA-A*02-binding tumor-associated peptides
[3] = test system: source genes (mRNA); test: Gene and exon expression of source genes, TCGA tumor samples compared with normal tissue samples (Lonsdale, 2013) (Table 17); design: species or system human; conditions: for Target coverage: over-expression category of source gene, LAML: Acute Myeloid Leukemia (N = 173); for Target coverage: over-expression category of source gene, BLCA: Bladder urothelial carcinoma (N = 408); for Target coverage: over-expression category of source gene, BRCA: Breast cancer (N = 1104), cutoff more than 2-fold above highest 75% percentile of high and medium risk normal tissue samples; for Target coverage: over-expression category of source gene, KIRC: Clear cell kidney carcinoma (N = 534); for Target coverage: over-expression category of source gene, ESCA: Esophageal cancer (N = 185); for Target coverage: over-expression category of source gene, LUAD: Lung adenocarcinoma (N = 517); for Target coverage: over-expression category of source gene, LUSC: Lung squamous cell carcinoma (N = 503); for Target coverage: over-expression category of source gene, OV: Ovarian serous cystadenocarcinoma (N = 309); for Target coverage: over-expression category of source gene, KIRP: Papillary kidney carcinoma (N = 291); for Target coverage: over-expression category of source gene, SKCM: Skin cutaneous melanoma (N = 473); for Target coverage: over-expression category of source gene, STAD: Stomach adenocarcinoma (N = 415); for Target coverage: over-expression category of source gene, UCEC: Uterine corpus endometrial carcinoma (N = 546); for Target coverage: over-expression category of source gene, PRAD: Prostate adenocarcinoma (N = 498); for Target coverage: over-expression category of source gene, GBM: Glioblastoma multiforme (N = 169); for Target coverage: over-expression category of source gene, LGG: Lower grade glioma (N = 534); for Target coverage: over-expression category of source gene, DLBC: Lymphoid neoplasm diffuse large B-cell lymphoma (N = 48)
[4] = Table 13A, cancer entities on which the peptide was found presented
[5] = Table 13B, presentation on additional cancer entities
[6] = cutoff more than 2-fold above highest 75% percentile of normal tissue samples

Substance	Expression score OSCAR [1]	Expression score GB [1]	Expression score NSCLC [1]	Expression score OC [1]	Expression score UBC [1]	Expression score UEC [1]	Presentation score OSCAR ([2]; HLA-A*02 peptides)	Presentation score GC ([2]; HLA-A*02 peptides)	Presentation score NSCLC ([2]; HLA-A*02 peptides)	Peptide Presentation on cancer entities [2, 4]	Peptide Presentation on cancer entities [2, 5]	Target coverage: over-expression category of source gene, LAML [3, 6]	Target coverage: over-expression category of source gene, BLCA [3, 6]	Target coverage: over-expression category of source gene, BRCA [3]	Target coverage: over-expression category of source gene, KIRC [3, 6]	Target coverage: over-expression category of source gene, ESCA [3, 6]	Target coverage: over-expression category of source gene, LUAD [3, 6]	Target coverage: over-expression category of source gene, LUSC [3, 6]	Target coverage: over-expression category of source gene, OV [3, 6]	Target coverage: over-expression category of source gene, STAD [3, 6]	further results
63: peptide found in PRRC2C (gene looked up) (SQIPAQPSV; listed as Homo sapiens) [compound 63]	+	+	+	+	+	+	++++	++++	++++	GC, NSCLC, OSCAR	AML, HNSCC	A (>=50% of tumors above the cutoff)	C (>=5% of tumors above the cutoff, but <20%)	B (>= 20% of tumors above the cutoff, but <50%)	C (>=5% of tumors above the cutoff, but <20%)	A (>=50% of tumors above the cutoff)	B (>= 20% of tumors above the cutoff, but <50%)	C (>=5% of tumors above the cutoff, but <20%)	A (>=50% of tumors above the cutoff)	A (>=50% of tumors above the cutoff)	Expression score BRCA ([1]; BRCA tumors vs panel of normal tissues): +; Expression score CLL ([1]; chronic lymphocytic leukemia (N = 10) vs panel of normal tissues): +; Expression score GBC_CCC ([1]; gallbladder adenocarcinoma and cholangiocarcinoma (N = 3) vs panel of normal tissues): +; Expression score RCC ([1]; renal cell carcinoma (N = 10) vs panel of normal tissues): +; Expression score SCLC ([1]; small cell lung cancer (N = 10) vs panel of normal tissues): +; Target coverage: over-expression category of source gene, KIRP [3, 6]: C (>=5% of tumors above the cutoff, but <20%); Target coverage: over-expression category of source gene, SKCM [3, 6]: C (>=5% of tumors above the cutoff, but <20%); Target coverage: over-expression category of source gene, UCEC [3, 6]: C (>=5% of tumors above the cutoff, but <20%)
64: peptide found in STEAP2 (gene looked up) (SLFPDSLIV; listed as Homo sapiens) [compound 64]			+							PCA	NSCLC, HCC, BRCA, PC			C (>=5% of tumors above the cutoff, but <20%)		C (>=5% of tumors above the cutoff, but <20%)				C (>=5% of tumors above the cutoff, but <20%)	Expression score PCA ([1]; prostate cancer and benign prostate hyperplasia (N = 5) vs panel of normal tissues): +++; Presentation score PCA ([2]; HLA-A*02 peptides, prostate cancer and benign prostate hyperplasia (N = 39) vs panel of normal tissues (N = 262)): ++++; Target coverage: over-expression category of source gene, PRAD [3, 6]: A (>=50% of tumors above the cutoff)
65: peptide found in SMARCE1 (gene looked up) (SVVPDVRSV; listed as Homo sapiens) [compound 65]	++	+		+++	+	+	++++	++++	++++	GC, NSCLC, OSCAR		A (>=50% of tumors above the cutoff)	A (>=50% of tumors above the cutoff)	A (>=50% of tumors above the cutoff)	A (>=50% of tumors above the cutoff)	A (>=50% of tumors above the cutoff)	A (>=50% of tumors above the cutoff)	A (>=50% of tumors above the cutoff)	A (>=50% of tumors above the cutoff)	A (>=50% of tumors above the cutoff)	Expression score NHL ([1]; non-Hodgkin lymphoma (N = 10) vs panel of normal tissues): +; Target coverage: over-expression category of source gene, CHOL ([3]; Cholangiocarcinoma (N = 36), cutoff more than 2-fold above highest 75% percentile of normal tissue samples): A (>=50% of tumors above the cutoff); Target coverage: over-expression category of source gene, READ ([3]; Colon and rectal adenocarcinoma (N = 167), cutoff more than 2-fold above highest 75% percentile of normal tissue samples): A (>=50% of tumors above the cutoff); Target coverage: over-expression category of source gene, COAD ([3]; Colon and rectal adenocarcinoma (N = 462), cutoff more than 2-fold above highest 75% percentile of normal tissue samples): A (>=50% of tumors above the cutoff); Target coverage: over-expression category of source gene, GBM [3, 6]: A (>=50% of tumors above the cutoff); Target coverage: over-expression category of source gene, KICH ([3]; Kidney chromophobe (N = 66), cutoff more than 2-fold above highest 75% percentile of normal tissue samples): A (>=50% of tumors above the cutoff); Target coverage: over-expression category of source gene, LIHC ([3]; Liver hepatocellular carcinoma (N = 374), cutoff more than 2-fold above highest 75% percentile of normal tissue samples): A (>=50% of tumors above the cutoff); Target coverage: over-expression category of source gene, LGG [3, 6]: A (>=50% of tumors above the cutoff); Target coverage: over-expression category of source gene, DLBC [3, 6]: A (>=50% of tumors above the cutoff); Target coverage: over-expression category of source gene, PAAD ([3]; Pancreatic ductal adenocarcinoma (N = 179), cutoff more than 2-fold above highest 75% percentile of normal tissue samples): A (>=50% of tumors above the cutoff); Target coverage: over-expression category of source gene, KIRP [3, 6]: A (>=50% of tumors above the cutoff); Target coverage: over-expression category of source gene, PRAD [3, 6]: A (>=50% of tumors above the cutoff); Target coverage: over-expression category of source gene, SKCM [3, 6]: A (>=50% of tumors above the cutoff); Target coverage: over-expression category of source gene, UCEC [3, 6]: A (>=50% of tumors above the cutoff)
71: peptide found in PLD4 (gene looked up) (VLHSKFWVV; listed as Homo sapiens) [compound 71]		+								CLL, NHL		A (>=50% of tumors above the cutoff)			C (>=5% of tumors above the cutoff, but <20%)						Expression score AML ([1]; acute myeloid leukemia (N = 11) vs panel of normal tissues): +; Presentation score CLL ([2]; HLA-A*02 peptides, chronic lymphocytic leukemia (N = 17) vs panel of normal tissues (N = 262)): ++++; Presentation score NHL ([2]; HLA-A*02 peptides, non-Hodgkin lymphoma (N = 18) vs panel of normal tissues (N = 262)): ++++; Target coverage: over-expression category of source gene, GBM [3, 6]: B (>= 20% of tumors above the cutoff, but <50%); Target coverage: over-expression category of source gene, LGG [3, 6]: B (>= 20% of tumors above the cutoff, but <50%); Target coverage: over-expression category of source gene, DLBC [3, 6]: C (>=5% of tumors above the cutoff, but <20%)

Source: patent publication US20170189504A1, “NOVEL PEPTIDES AND COMBINATION OF PEPTIDES FOR USE IN IMMUNOTHERAPY AGAINST VARIOUS CANCERS” (immatics biotechnologies GmbH, priority 2015, published 2017)
